Measured values: patent US20240269320A1, “EXTENDED RELEASE DRUG DELIVERY SYSTEM FOR OCULAR DRUGS AND METHODS OF USE” (Eyedea Bio, LLC, priority 2021, published 2024)
Where two headings read alike, the source gives them in different places. The name of at least one read-out is uncertain.

Tests used:
[1] = flowable bolus implant
[2] = Sunitinib malate bio-erodible tube implant, drug levels in retina tissue of rabbits; type: in vivo, rabbit; details: high dose implant
Source text: In another example, formulations of the hydrophilic small molecule sunitinib malate in the multiphasic colloidal suspension were developed (FIGS. 20-22). […] Complexation of sunitinib to selected complexation agents was visually confirmed by admixture and pulldown of sunitinib-complex particulates, which was confirmed since by the yellow-orange color of particulates (sunitinib has orange coloration) (FIG. 21).
In another example, formulations of the hydrophilic small molecule sunitinib malate in the multiphasic colloidal suspension were developed. […] Complexation of sunitinib to selected complexation agents was visually confirmed by admixture and pulldown of sunitinib-complex particulates, which was confirmed since by the yellow-orange color of particulates (sunitinib has orange coloration). Formulations of sunitinib with two-phase release kinetics in a bio-erodible tube formulation of sunitinib multiphasic colloidal suspension were designed and manufactured. […] Alteration of the ratio of sunitinib-complex particulates reduced the amount of drug released during initial burst and lowered the steady state release.

Compound | retina tissue levels relative to IC90 [1] | retina tissue levels relative to IC90 [2]
CNC(=O)c1ccccc1Sc1ccc2c(/C=C/c3ccccn3)n[nH]c2c1 [axitinib] | remained consistently above IC90 levels | –
CCN(CC)CCNC(=O)c1c(C)[nH]c(/C=C2\C(=O)Nc3ccc(F)cc32)c1C [sunitinib malate] | – | remained consistently above IC90 levels
